Data as given in PubChem BioAssay AID1259254 (NCATS, 2017)
Shown is a random part of about 59,000 reagents. Over the whole deposit, about 1,550 (2.6%) are marked active. 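G2 share is only a proxy for re-replication; each gene was hit by three separate siRNAs, and active genes were retested.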 The raw values are shown without normalisation. A number with no mark means an inactive call. Reagents against one gene are numbered here. The record does not give: the amount of reagent.

- Screen: 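Genome-wide screen for genes that prevent DNA re-replication in cancer cells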 (primary screen)
- Cells: human HCT116 colorectal cancer cells
- Reagents: single siRNA against human genes
- Timing: 3 days
- Measurement: 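Imaged Hoechst DNA stain sorts each cell into a cycle phase by DNA amount; per plate, G2 fraction set to 0% for non-targeting and 100% for GMNN siRNA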
- Direction: G2 robust z-score and G2 cells, % of GMNN control: higher = more G2 cells, more excess DNA replication; raw share of cells in G2: higher = larger share of cells with G2 DNA content
- Hit rule: 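Active siRNAs have a G2 robust z of 5 or more median absolute deviations over the median, which in these data means about 38% or higher of GMNN control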

| gene | siRNA no. | G2 robust z-score | G2 cells, % of GMNN control | raw share of cells in G2 (%) |
| --- | --- | --- | --- | --- |
| DOK4 | 1 | -1.23 | -5.67 | 2.35 |
| DOK4 | 2 | -0.429 | -0.0494 | 4.12 |
| DOK4 | 3 | -0.385 | 0.257 | 3.22 |
| ZNF74 | 1 | -0.743 | -2.26 | 4.98 |
| ZNF74 | 2 | 1.39 | 12.8 | 8.69 |
| ZNF74 | 3 | 0.218 | 4.5 | 5.02 |
| MACROH2A1 | 1 | -0.493 | -0.499 | 5.1 |
| MACROH2A1 | 2 | -0.357 | 0.458 | 4.13 |
| MACROH2A1 | 3 | 0.159 | 4.09 | 4.89 |
| FLG2 | 1 | -0.203 | 1.54 | 5.29 |
| FLG2 | 2 | -0.72 | -2.1 | 3.05 |
| FLG2 | 3 | -0.868 | -3.14 | 2.04 |
| TSC1 | 1 | -1.32 | -6.32 | 2.33 |
| TSC1 | 2 | 0.402 | 5.79 | 6.19 |
| TSC1 | 3 | 0.786 | 8.5 | 6.35 |
| NTAN1 | 1 | -0.376 | 0.319 | 1.91 |
| NTAN1 | 2 | -0.253 | 1.19 | 4.57 |
| NTAN1 | 3 | -0.649 | -1.6 | 2.85 |
| CAPN1-AS1 | 1 | -0.126 | 2.08 | 3.92 |
| CAPN1-AS1 | 2 | 4.43 | 34.1 | 17 |
| CAPN1-AS1 | 3 | -0.792 | -2.6 | 2.48 |
| COG5 | 1 | 4.78 | 36.6 | 15.7 |
| COG5 | 2 | -0.576 | -1.09 | 5.22 |
| COG5 | 3 | 2.03 | 17.3 | 13.3 |
| INSL5 | 1 | 1.9 | 16.3 | 12.7 |
| INSL5 | 2 | -0.429 | -0.0493 | 3.92 |
| INSL5 | 3 | 2.13 | 18 | 9.95 |
| TMEM161B | 1 | 1.45 | 13.1 | 8.31 |
| TMEM161B | 2 | -0.941 | -3.65 | 1.73 |
| TMEM161B | 3 | 0.422 | 5.94 | 4.64 |
| SLC25A51 | 1 | -0.486 | -0.454 | 5.46 |
| SLC25A51 | 2 | -0.778 | -2.51 | 3.89 |
| SLC25A51 | 3 | 0.0652 | 3.43 | 5.77 |
| INTS4 | 1 | -0.11 | 2.19 | 5.01 |
| INTS4 | 2 | 0.45 | 6.14 | 4.92 |
| INTS4 | 3 | -0.383 | 0.273 | 3.01 |
| TP53 | 1 | -0.053 | 2.59 | 4.49 |
| TP53 | 2 | -0.865 | -3.12 | 3.39 |
| TP53 | 3 | 1.02 | 10.1 | 6.79 |
| IL37 | 1 | 2.65 | 21.6 | 12.1 |
| IL37 | 2 | -1.27 | -5.97 | 2.29 |
| IL37 | 3 | 6.16 (active) | 46.3 | 17.9 |
| FGF7 | 1 | 0.16 | 4.09 | 7.22 |
| FGF7 | 2 | 0.57 | 6.98 | 6.64 |
| FGF7 | 3 | 1.13 | 10.9 | 7.79 |
| ABCB5 | 1 | 0.48 | 6.35 | 7.44 |
| ABCB5 | 2 | -1.35 | -6.56 | 3.07 |
| ABCB5 | 3 | -0.745 | -2.27 | 3.46 |

Part of the list above, limited to “raw share of cells in G2 (%)”:
INTS4 #3 = 3.01
TP53 #1 = 4.49
